# The list shows a part of the results. Only hits are listed; about a third recur on repeated control peptides.
# Amino acid sequences for entries named in this document (tags omitted).
# HIST1H1C, P16403, UniProt P16403, whole entry: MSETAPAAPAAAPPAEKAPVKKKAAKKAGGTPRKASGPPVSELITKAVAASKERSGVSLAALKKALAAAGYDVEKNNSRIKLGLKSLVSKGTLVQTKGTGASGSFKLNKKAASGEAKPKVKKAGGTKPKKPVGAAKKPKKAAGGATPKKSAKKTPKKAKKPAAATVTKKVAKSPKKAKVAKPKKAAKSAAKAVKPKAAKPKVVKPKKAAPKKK
# HIST1H1D, P16402, UniProt P16402, whole entry: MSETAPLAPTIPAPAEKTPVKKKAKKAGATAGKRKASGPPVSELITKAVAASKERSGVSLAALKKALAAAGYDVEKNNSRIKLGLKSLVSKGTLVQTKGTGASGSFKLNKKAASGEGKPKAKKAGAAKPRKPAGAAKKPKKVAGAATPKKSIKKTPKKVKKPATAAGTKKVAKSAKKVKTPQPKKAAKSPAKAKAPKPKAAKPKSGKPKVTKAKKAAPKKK
# MORF4L1, Q9UBU8, UniProt Q9UBU8, whole entry: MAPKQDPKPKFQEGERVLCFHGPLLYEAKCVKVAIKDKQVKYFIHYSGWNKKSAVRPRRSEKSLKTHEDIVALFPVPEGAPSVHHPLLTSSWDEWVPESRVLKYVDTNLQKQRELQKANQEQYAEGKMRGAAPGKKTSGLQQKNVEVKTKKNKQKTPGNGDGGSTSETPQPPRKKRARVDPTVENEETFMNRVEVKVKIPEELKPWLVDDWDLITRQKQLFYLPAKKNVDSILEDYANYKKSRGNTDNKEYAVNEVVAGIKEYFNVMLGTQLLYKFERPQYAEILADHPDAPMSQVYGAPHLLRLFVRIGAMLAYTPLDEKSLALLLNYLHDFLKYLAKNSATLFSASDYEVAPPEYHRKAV
# MORF4L2, Q15014, UniProt Q15014, whole entry: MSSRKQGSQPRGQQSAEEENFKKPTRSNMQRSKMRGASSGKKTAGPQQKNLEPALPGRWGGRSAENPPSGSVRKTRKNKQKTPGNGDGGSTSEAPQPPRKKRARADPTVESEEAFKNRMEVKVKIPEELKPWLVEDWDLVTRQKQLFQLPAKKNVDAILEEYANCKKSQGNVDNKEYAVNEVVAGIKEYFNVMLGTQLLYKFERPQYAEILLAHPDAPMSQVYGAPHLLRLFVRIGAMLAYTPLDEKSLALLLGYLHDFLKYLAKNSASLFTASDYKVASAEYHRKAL
# NDUFB7, P17568, UniProt P17568, whole entry: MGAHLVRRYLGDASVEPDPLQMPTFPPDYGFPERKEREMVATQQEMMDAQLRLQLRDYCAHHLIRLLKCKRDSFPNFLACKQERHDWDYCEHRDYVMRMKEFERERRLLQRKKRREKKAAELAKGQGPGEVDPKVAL
# NDUFV1, P49821, UniProt P49821, whole entry: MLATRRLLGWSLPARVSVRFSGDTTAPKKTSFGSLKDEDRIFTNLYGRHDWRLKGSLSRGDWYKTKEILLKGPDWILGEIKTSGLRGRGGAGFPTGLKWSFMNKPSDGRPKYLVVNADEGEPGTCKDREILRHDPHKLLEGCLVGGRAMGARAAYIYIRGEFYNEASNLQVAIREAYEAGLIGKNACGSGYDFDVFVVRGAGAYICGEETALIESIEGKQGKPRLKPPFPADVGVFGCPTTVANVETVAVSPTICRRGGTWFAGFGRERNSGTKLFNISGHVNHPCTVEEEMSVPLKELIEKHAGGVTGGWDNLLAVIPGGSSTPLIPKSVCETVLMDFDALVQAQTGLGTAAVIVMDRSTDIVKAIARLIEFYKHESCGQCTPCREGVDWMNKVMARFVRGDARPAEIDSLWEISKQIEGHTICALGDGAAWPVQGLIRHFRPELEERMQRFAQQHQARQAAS
# PIN4, Q9Y237, UniProt Q9Y237, whole entry: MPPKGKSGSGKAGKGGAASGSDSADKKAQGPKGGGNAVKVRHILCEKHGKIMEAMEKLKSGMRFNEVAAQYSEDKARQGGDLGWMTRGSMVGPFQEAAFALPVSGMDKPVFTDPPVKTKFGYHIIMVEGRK
# PLK1, P53350, UniProt P53350, whole entry: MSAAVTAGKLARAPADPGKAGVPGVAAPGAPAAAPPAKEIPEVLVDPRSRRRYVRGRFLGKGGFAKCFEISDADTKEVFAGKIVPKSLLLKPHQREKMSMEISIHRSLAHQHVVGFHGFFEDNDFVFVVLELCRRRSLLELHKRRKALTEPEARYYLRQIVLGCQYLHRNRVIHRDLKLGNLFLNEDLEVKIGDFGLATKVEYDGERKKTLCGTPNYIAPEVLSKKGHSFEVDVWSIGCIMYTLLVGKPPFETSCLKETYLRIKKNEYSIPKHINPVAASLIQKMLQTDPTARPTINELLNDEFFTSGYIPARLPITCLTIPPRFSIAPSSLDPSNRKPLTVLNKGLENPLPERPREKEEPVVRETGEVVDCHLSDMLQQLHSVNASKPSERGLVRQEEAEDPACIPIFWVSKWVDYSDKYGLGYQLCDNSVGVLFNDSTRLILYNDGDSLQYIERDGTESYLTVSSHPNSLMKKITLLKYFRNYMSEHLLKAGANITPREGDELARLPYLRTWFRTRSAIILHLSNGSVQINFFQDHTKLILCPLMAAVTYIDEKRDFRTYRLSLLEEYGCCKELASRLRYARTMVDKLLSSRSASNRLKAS
# COX6B1, P14854, UniProt P14854, whole entry: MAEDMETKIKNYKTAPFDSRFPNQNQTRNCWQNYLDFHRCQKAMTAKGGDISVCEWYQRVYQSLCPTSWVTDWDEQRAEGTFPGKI
# DNM1L, O00429, UniProt O00429, whole entry: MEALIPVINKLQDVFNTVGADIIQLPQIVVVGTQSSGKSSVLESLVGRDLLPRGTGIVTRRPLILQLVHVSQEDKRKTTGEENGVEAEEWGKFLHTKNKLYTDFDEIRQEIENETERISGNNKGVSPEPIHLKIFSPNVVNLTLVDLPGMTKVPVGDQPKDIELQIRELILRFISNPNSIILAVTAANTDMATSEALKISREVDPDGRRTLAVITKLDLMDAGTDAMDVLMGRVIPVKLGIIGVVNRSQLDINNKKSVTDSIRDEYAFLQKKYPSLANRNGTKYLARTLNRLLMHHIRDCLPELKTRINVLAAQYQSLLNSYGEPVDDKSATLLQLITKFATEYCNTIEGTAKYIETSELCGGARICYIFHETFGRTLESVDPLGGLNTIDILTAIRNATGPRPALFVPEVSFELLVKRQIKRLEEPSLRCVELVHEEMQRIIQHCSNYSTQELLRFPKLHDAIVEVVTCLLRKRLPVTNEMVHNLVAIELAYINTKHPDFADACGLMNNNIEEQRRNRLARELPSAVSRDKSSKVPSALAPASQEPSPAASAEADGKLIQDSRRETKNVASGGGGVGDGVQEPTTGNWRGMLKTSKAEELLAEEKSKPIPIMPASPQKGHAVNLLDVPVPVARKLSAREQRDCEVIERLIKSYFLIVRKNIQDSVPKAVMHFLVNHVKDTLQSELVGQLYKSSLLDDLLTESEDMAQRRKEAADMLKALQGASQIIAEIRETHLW
# What was measured:
# Assay in all cases: PRISMA enrichment of interactor (LFQ) in peptide spot vs all other peptide spots (log2 fold change); higher = stronger / more specific binding of the interactor to the peptide
# AGPS, O00116 = target: AGPS, O00116
# Protocol: (§1)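 PRISMA: 15-aa overlapping tiles (offset 8 aa) of 60 microproteins, plus SOS1/GLUT1 control peptides, were spot-synthesized on cellulose membranes in triplicate. Membranes were incubated with benzonase-treated HEK293T lysate, and bound proteins were identified by LC-MS/MS with LFQ. Enrichment is the log2 fold change of each protein in one spot versus all other spots. Only interactors passing the significance cutoff are listed.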
# ALYREF, Q86V81 = target: ALYREF, Q86V81
# Protocol: as §1
# AURKAIP1, Q9NWT8 = target: AURKAIP1, Q9NWT8
# Protocol: as §1
# C11orf98, E9PRG8 = target: C11orf98, E9PRG8
# Protocol: as §1
# C19orf53, Q9UNZ5 = target: C19orf53, Q9UNZ5
# Protocol: as §1
# CFAP20, Q9Y6A4 = target: CFAP20, Q9Y6A4
# Protocol: as §1
# CHMP4A, Q9BY43 = target: CHMP4A, Q9BY43
# Protocol: as §1
# CSNK1A1, P48729 = target: CSNK1A1, P48729
# Protocol: as §1
# CSNK1D, P48730 = target: CSNK1D, P48730
# Protocol: as §1
# CSNK1E, P49674 = target: CSNK1E, P49674
# Protocol: as §1
# CTNND1, O60716 = target: CTNND1, O60716
# Protocol: as §1
# CXorf56, Q9H5V9 = target: CXorf56, Q9H5V9
# Protocol: as §1
# DDX49, Q9Y6V7 = target: DDX49, Q9Y6V7
# Protocol: as §1
# EMG1, Q92979 = target: EMG1, Q92979
# Protocol: as §1
# H1FX, Q92522 = target: H1FX, Q92522
# Protocol: as §1
# HIST1H1C, P16403 = target: HIST1H1C, P16403
# Protocol: as §1
# HIST1H1D, P16402 = target: HIST1H1D, P16402
# Protocol: as §1
# HIST1H1T, P22492 = target: HIST1H1T, P22492
# Protocol: as §1
# MORF4L1, Q9UBU8 = target: MORF4L1, Q9UBU8
# Protocol: as §1
# MORF4L2, Q15014 = target: MORF4L2, Q15014
# Protocol: as §1
# MRPL34, Q9BQ48 = target: MRPL34, Q9BQ48
# Protocol: as §1
# MRRF, Q96E11 = target: MRRF, Q96E11
# Protocol: as §1
# NDUFB7, P17568 = target: NDUFB7, P17568
# Protocol: as §1
# NDUFV1, P49821 = target: NDUFV1, P49821
# Protocol: as §1
# NIFK, Q9BYG3 = target: NIFK, Q9BYG3
# Protocol: as §1
# OPA1, O60313 = target: OPA1, O60313
# Protocol: as §1
# PIN4, Q9Y237 = target: PIN4, Q9Y237
# Protocol: as §1
# PLK1, P53350 = target: PLK1, P53350
# Protocol: as §1
# [1] = substrate: PPIB, P23284
# Protocol: as §1
# [2] = substrate: PPIF, P30405
# Protocol: as §1
# PUSL1, Q8N0Z8 = target: PUSL1, Q8N0Z8
# Protocol: as §1
# RBIS, Q8N0T1 = target: RBIS, Q8N0T1
# Protocol: as §1
# SCP2, P22307 = target: SCP2, P22307
# Protocol: as §1
# SERF2, P84101 = target: SERF2, P84101
# Protocol: as §1
# SRP14, P37108 = target: SRP14, P37108
# Protocol: as §1
# ZNF22, P17026 = target: ZNF22, P17026
# Protocol: as §1
# ZNF687, Q8N1G0 = target: ZNF687, Q8N1G0
# Protocol: as §1
# hCG_2014768 = target: hCG_2014768
# Protocol: as §1
# AGPAT5, Q9NUQ2 = target: AGPAT5, Q9NUQ2
# Protocol: as §1
# COX6B1, P14854 = target: COX6B1, P14854
# Protocol: as §1
# DDX42, Q86XP3 = target: DDX42, Q86XP3
# Protocol: as §1
# DNM1L, O00429 = target: DNM1L, O00429
# Protocol: as §1
# EHHADH, Q08426 = target: EHHADH, Q08426
# Protocol: as §1
# FAM120A, Q9NZB2 = target: FAM120A, Q9NZB2
# Protocol: as §1
# GPD1L, Q8N335 = target: GPD1L, Q8N335
# Protocol: as §1
# PDP1, Q9P0J1 = target: PDP1, Q9P0J1
# Protocol: as §1
# RBM38, Q9H0Z9 = target: RBM38, Q9H0Z9
# Protocol: as §1
# ZNF616, Q08AN1 = target: ZNF616, Q08AN1
# Protocol: as §1
binder,measurement,setting,value
FLPDVLLSDSSDTSE [NAV2-AS2_2],PRISMA enrichment of interactor (log2),"AGPS, O00116",4
same,PRISMA enrichment of interactor (log2),"ALYREF, Q86V81",5.46
same,PRISMA enrichment of interactor (log2),"AURKAIP1, Q9NWT8",4.66
same,PRISMA enrichment of interactor (log2),"C11orf98, E9PRG8",5.34
same,PRISMA enrichment of interactor (log2),"C19orf53, Q9UNZ5",9.05
same,PRISMA enrichment of interactor (log2),"CFAP20, Q9Y6A4",4.36
same,PRISMA enrichment of interactor (log2),"CHMP4A, Q9BY43",4.45
same,PRISMA enrichment of interactor (log2),"CSNK1A1, P48729",5.83
same,PRISMA enrichment of interactor (log2),"CSNK1D, P48730",4.77
same,PRISMA enrichment of interactor (log2),"CSNK1E, P49674",5.6
same,PRISMA enrichment of interactor (log2),"CTNND1, O60716",7.33
same,PRISMA enrichment of interactor (log2),"CXorf56, Q9H5V9",4.57
same,PRISMA enrichment of interactor (log2),"DDX49, Q9Y6V7",5.45
same,PRISMA enrichment of interactor (log2),"EMG1, Q92979",7.67
same,PRISMA enrichment of interactor (log2),"H1FX, Q92522",5.14
same,PRISMA enrichment of interactor (log2),"HIST1H1C, P16403",6.5
same,PRISMA enrichment of interactor (log2),"HIST1H1D, P16402",7.69
same,PRISMA enrichment of interactor (log2),"HIST1H1T, P22492",4.63
same,PRISMA enrichment of interactor (log2),"MORF4L1, Q9UBU8",4.58
same,PRISMA enrichment of interactor (log2),"MORF4L2, Q15014",6.18
same,PRISMA enrichment of interactor (log2),"MRPL34, Q9BQ48",4.54
same,PRISMA enrichment of interactor (log2),"MRRF, Q96E11",4.85
same,PRISMA enrichment of interactor (log2),"NDUFB7, P17568",4.81
same,PRISMA enrichment of interactor (log2),"NDUFV1, P49821",11.2
same,PRISMA enrichment of interactor (log2),"NIFK, Q9BYG3",4.48
same,PRISMA enrichment of interactor (log2),"OPA1, O60313",5
same,PRISMA enrichment of interactor (log2),"PIN4, Q9Y237",4.82
same,PRISMA enrichment of interactor (log2),"PLK1, P53350",4.82
same,PRISMA enrichment of interactor (log2),[1],5.48
same,PRISMA enrichment of interactor (log2),[2],7.32
same,PRISMA enrichment of interactor (log2),"PUSL1, Q8N0Z8",5.02
same,PRISMA enrichment of interactor (log2),"RBIS, Q8N0T1",4.53
same,PRISMA enrichment of interactor (log2),"SCP2, P22307",4.99
same,PRISMA enrichment of interactor (log2),"SERF2, P84101",6.68
same,PRISMA enrichment of interactor (log2),"SRP14, P37108",5.59
same,PRISMA enrichment of interactor (log2),"ZNF22, P17026",4.71
same,PRISMA enrichment of interactor (log2),"ZNF687, Q8N1G0",4.29
same,PRISMA enrichment of interactor (log2),hCG_2014768,4.95
RLSFWSICRSLHHGP [PSMB8-AS1],PRISMA enrichment of interactor (log2),"AGPAT5, Q9NUQ2",4.82
same,PRISMA enrichment of interactor (log2),"COX6B1, P14854",5.4
same,PRISMA enrichment of interactor (log2),"DDX42, Q86XP3",8.89
same,PRISMA enrichment of interactor (log2),"DNM1L, O00429",7.28
same,PRISMA enrichment of interactor (log2),"EHHADH, Q08426",5.05
same,PRISMA enrichment of interactor (log2),"FAM120A, Q9NZB2",4.69
same,PRISMA enrichment of interactor (log2),"GPD1L, Q8N335",4.38
same,PRISMA enrichment of interactor (log2),"PDP1, Q9P0J1",10.3
same,PRISMA enrichment of interactor (log2),"RBM38, Q9H0Z9",5.05
same,PRISMA enrichment of interactor (log2),"ZNF22, P17026",4.31
same,PRISMA enrichment of interactor (log2),"ZNF616, Q08AN1",6.17

# Part of the list above in a different format.
binder	measurement	setting	value
FLPDVLLSDSSDTSE [NAV2-AS2_2]	PRISMA enrichment of interactor (log2)	CXorf56, Q9H5V9	4.57
same	PRISMA enrichment of interactor (log2)	DDX49, Q9Y6V7	5.45

# Fetched one by one from the list above:
binder,measurement,setting,value
RLSFWSICRSLHHGP [PSMB8-AS1],PRISMA enrichment of interactor (log2),"COX6B1, P14854",5.4
FLPDVLLSDSSDTSE [NAV2-AS2_2],PRISMA enrichment of interactor (log2),"CXorf56, Q9H5V9",4.57
